We go through 5 molecules from PMC9092470, “Understanding p300-transcription factor interactions using sequence variation and hybridization†” (RSC Chemical Biology, 2022).

Amino acid sequences for entries named in this document (tags omitted). Residues count along the entry.
UniProt Q09472, residues 330-420: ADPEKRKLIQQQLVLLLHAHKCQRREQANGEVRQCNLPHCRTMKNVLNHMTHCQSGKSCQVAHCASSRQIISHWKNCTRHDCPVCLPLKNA

Experiment [1] concerns the target p300 CH1 domain (residues 330-420), GST removed with thrombin (human) (UniProt Q09472). Briefly: ITC; competition ITC, apparent constants; HIF-1α776-826 (50 µM) titrated to 5 µM p300 saturated beforehand with 5.8 µM CITED2216-269; competition model with KD and ΔH of CITED2 fixed; 40 mM sodium phosphate, pH 7.5, 100 mM NaCl, 1 mM DTT; 35 °C; Microcal VP ITC; both purified.

For experiment [2] the target is unchanged. The experiment can be described thus: ITC; competition ITC, apparent constants; HIF-1α786-826 (50 µM) titrated to 4.4 µM p300 saturated beforehand with 5.9 µM CITED2224-259; competition model with KD and ΔH of CITED2224-259 fixed; 40 mM sodium phosphate, pH 7.5, 100 mM NaCl, 1 mM DTT; 35 °C; Microcal VP ITC; both purified. Background: ITC needs no label: the signal is the heat of the interaction.

In experiment [3] the target is p300 CH1 domain (residues 330-420), GST removed with PreScission protease (human) (UniProt Q09472). Briefly: fluorescence polarisation; direct fluorescence anisotropy titration; 50 nM GFP or GFP-HIF-1α as fluorescent species, GST-p300 or p300 in a two-fold dilution series starting from 10 µM; 25 mM Tris-HCl, 150 mM NaCl, 1 mM DTT, pH 7.4; 27 °C ± 1 °C; technical triplicates; both purified. A general note: In fluorescence polarisation assays a small probe gives low polarisation when free and higher when bound to something large.

The target in experiment [4] is GST-p300 (GST-tagged p300 CH1 domain, residues 330-420) (human) (UniProt Q09472). Briefly: fluorescence polarisation; fluorescence anisotropy competition; 5 nM FAM-HIF786-826 as tracer, two-fold dilution series of the competitor from 10 µM over 24 points; 25 mM Tris-HCl, 150 mM NaCl, 1 mM DTT, pH 7.4; concentration of p300 not stated; both purified.
In experiment [5] the target is p300 CH1 domain (residues 330-420), GST removed with thrombin (human) (UniProt Q09472). The experiment can be described thus: ITC; competition ITC, apparent constants; CITED2224-259 (50 µM) titrated to 4.5 µM p300 saturated beforehand with 5.5 µM HIF-1α786-826; competition model with KD and ΔH of HIF-1α786-826 fixed; 40 mM sodium phosphate, pH 7.5, 100 mM NaCl, 1 mM DTT; 35 °C; Microcal VP ITC; both purified.

No constants are given. Whether binding was seen depends on the method and setting. Some binding calls cover weakened binding; strength is not graded here. For some assays here: Tags and fused reporters may be left off the sequences shown.

B1: CITED2216-269 (synthetic) (peptide)
peptide: NVIDTDFIDEEVLMSLVIEMGLDRIKELPELWLGQNEFDFMTDFVCKQQPSRVS
modifications: N-terminal acetyl (Ac-); C-terminal amide (-NH2)
For B1, in experiment [1], the binding entry is given as “binds”. Consider DEEVLMSLVIEMGLDRIKELPELWLGQNEFDFMTDF (N-terminal acetyl (Ac-); C-terminal amide (-NH2)) [CITED2224-259 (synthetic)], for which the binding entry in experiment [2] is “binds”.

B2: GFP-HIF-1α776-826 (His10-GFP fusion of the HIF-1α C-TAD, wild type) (domain or fragment)
chain: SDLACRLLGQSMDESGLPQLTSYDCEVNAPIQGSRNLLQGEELLRALDQVN
On to B2, for which the binding entry in experiment [3] is on record as “binds”. With SMDESGLPQLTSYDCEVNAPIQGSRNLLQGEELLRALDQVN (FAM label (position not given)) [FAM-HIF786-826 (fluorescent tracer)], the binding result in experiment [4] is recorded as “binds”. Consider SMDESGLPQLTSYDCEVNAPIQGSRNLLQGEELLRALDQVN (N-terminal acetyl (Ac-); C-terminal amide (-NH2)) [HIF-1α786-826 (synthetic)], for which the binding entry in experiment [5] is “binds”.
